The assay concerns the target T1, PTK7-FLAG (human protein tyrosine kinase 7 with a C-terminal FLAG-tag) (human) (UniProt Q13308).
T1 sequence: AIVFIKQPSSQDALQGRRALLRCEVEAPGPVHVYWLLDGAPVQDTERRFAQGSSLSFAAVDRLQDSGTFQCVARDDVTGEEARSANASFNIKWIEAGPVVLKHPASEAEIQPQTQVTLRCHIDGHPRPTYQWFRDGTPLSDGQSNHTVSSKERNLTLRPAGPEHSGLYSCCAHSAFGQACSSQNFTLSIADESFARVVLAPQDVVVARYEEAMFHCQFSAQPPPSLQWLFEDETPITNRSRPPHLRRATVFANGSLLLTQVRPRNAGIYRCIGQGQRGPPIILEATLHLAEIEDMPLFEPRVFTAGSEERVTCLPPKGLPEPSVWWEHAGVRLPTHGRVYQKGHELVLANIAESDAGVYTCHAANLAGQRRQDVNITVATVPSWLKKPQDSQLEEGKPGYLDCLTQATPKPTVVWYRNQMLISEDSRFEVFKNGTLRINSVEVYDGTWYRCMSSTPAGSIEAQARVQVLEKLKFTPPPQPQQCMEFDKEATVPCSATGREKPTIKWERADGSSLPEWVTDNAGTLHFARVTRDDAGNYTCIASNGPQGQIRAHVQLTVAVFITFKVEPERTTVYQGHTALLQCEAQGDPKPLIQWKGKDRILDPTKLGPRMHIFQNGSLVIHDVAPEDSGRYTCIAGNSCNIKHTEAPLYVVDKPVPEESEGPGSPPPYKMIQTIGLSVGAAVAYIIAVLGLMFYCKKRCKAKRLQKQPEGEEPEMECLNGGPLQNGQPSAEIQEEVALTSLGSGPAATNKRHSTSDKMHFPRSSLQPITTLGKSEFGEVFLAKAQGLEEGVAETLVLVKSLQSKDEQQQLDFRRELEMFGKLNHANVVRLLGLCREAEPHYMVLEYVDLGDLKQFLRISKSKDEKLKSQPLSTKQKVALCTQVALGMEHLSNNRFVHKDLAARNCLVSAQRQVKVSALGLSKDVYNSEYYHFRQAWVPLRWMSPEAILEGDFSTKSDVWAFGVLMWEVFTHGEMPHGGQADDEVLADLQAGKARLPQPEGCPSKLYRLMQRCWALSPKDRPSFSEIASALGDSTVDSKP
Put plainly: co-IP; HEK293 cells co-expressing PTK7-FLAG and FGFR1-HA, EGFR-HA or ROR2-HA; NP-40 lysis buffer (50 mM Tris-HCl pH 7.4, 150 mM NaCl, 1% NP-40); lysates incubated with mouse anti-FLAG M2-agarose for 2 h, washed, Western blot for HA; called a pull-down by the paper. In general terms: In western blotting, separated proteins are transferred to a membrane and probed.

Sequences of proteins named here, by UniProt entry; tags and fusion partners are left off. Residues count along the entry.
UniProt P11362, residues 22-822: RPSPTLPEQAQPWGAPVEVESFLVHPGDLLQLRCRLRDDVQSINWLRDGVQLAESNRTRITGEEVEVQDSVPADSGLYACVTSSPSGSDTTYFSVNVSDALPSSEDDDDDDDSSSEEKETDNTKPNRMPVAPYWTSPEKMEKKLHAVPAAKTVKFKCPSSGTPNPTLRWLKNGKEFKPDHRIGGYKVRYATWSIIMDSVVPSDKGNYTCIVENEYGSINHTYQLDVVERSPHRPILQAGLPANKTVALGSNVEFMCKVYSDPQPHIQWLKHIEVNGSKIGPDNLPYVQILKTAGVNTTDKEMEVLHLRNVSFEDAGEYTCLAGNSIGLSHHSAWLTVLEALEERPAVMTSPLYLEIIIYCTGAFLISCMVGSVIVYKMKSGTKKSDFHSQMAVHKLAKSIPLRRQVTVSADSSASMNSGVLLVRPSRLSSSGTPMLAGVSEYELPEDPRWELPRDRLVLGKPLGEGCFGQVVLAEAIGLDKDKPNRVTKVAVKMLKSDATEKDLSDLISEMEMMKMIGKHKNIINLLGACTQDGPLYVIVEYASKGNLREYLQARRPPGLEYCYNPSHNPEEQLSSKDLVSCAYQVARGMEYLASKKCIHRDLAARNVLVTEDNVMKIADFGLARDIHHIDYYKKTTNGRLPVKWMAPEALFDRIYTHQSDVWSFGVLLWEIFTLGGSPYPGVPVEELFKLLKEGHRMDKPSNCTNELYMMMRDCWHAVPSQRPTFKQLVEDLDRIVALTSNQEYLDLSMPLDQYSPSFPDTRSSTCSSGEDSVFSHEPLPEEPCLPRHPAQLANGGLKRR
UniProt Q01974, residues 34-943: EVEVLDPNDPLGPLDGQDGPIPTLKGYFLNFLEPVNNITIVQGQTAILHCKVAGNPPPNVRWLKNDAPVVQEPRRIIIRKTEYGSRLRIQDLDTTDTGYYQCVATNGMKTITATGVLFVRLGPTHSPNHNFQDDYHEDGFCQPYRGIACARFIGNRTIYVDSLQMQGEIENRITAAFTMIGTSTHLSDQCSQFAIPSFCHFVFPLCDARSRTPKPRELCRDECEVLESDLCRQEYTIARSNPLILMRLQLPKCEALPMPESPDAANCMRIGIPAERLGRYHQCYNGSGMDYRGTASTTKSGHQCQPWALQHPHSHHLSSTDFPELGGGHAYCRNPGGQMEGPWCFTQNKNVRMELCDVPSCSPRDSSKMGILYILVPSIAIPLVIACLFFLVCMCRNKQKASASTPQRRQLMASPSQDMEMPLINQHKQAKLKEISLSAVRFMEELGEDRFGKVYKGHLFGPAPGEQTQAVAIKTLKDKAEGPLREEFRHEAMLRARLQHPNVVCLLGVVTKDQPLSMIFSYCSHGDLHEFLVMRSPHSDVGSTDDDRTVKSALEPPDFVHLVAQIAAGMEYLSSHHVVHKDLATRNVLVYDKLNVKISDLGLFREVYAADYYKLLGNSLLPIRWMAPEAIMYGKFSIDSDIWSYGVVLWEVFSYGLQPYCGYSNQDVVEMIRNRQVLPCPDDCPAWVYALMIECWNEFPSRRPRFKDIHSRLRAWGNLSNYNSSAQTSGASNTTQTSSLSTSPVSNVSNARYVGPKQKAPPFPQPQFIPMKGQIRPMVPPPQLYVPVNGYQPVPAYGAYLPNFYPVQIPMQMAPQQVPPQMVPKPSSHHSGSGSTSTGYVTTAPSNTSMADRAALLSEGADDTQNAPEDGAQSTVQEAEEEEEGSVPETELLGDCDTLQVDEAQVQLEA

No constants are given. Whether binding was seen depends on the method and setting. In cells and extracts the contact can be indirect. Some binding calls cover weakened binding; strength is not graded here. Sequences can lack the tags named with a protein.

Regarding “FGFR1-HA (human fibroblast growth factor receptor 1 with a C-terminal HA-tag) (from UniProt P11362 22-822)”, the binding entry is recorded as “binds”.

Consider “ROR2-HA (full-length human ROR2 with a C-terminal HA-tag) (from UniProt Q01974 34-943) (receptor)”, for which the binding entry is on record as “binds”.
